Results are given in words; binding and its absence hold for the method and conditions named. Binding seen in cells or lysates may run through a third protein. Some binding calls cover weakened binding; strength is not graded here.
Key:
[1] = biological target: TrkB receptor (rat (endogenous in hippocampal neurons)) (UniProt Q63604); assay: co-IP; as a1, but neurons not stimulated with BDNF (control)
[2] = biological target: TrkB receptor (rat (endogenous in hippocampal neurons)) (UniProt Q63604); assay: co-IP; 7 DIV rat hippocampal neurons stimulated with 50 ng/mL BDNF for 1 h; lysis in 20 mM Tris, 150 mM NaCl, 10% glycerol, 1% Igepal, 2 mM EDTA; 300-500 ug lysate with 2 ug anti-c-Abl (K12) or anti-TrkB (Millipore) overnight at 4 C; protein G-Plus agarose; western blot

Amino acid sequences for entries named in this document (tags omitted). Residues count along the entry.
UniProt Q63604, residues 32-821: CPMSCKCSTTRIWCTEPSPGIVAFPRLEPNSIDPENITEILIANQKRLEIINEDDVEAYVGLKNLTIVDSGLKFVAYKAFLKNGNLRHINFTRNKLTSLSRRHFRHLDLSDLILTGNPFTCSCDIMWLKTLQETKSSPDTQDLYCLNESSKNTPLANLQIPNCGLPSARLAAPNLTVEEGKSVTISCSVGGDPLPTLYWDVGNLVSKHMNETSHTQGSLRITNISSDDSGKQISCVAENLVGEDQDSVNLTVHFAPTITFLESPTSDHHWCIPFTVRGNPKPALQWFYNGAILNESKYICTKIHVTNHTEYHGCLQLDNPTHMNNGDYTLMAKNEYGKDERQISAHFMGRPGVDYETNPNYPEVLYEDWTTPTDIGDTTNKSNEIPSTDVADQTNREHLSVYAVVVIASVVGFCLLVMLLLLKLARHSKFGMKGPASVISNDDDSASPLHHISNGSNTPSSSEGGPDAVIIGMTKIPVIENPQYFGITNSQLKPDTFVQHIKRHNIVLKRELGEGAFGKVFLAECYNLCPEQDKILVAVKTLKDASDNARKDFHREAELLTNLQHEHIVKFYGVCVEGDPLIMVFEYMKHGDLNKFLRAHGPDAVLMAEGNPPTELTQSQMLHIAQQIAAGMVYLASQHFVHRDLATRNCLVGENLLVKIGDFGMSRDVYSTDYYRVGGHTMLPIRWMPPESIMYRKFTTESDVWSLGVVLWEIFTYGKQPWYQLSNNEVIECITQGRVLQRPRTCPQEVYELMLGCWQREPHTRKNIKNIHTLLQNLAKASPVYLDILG
UniProt E9PT20: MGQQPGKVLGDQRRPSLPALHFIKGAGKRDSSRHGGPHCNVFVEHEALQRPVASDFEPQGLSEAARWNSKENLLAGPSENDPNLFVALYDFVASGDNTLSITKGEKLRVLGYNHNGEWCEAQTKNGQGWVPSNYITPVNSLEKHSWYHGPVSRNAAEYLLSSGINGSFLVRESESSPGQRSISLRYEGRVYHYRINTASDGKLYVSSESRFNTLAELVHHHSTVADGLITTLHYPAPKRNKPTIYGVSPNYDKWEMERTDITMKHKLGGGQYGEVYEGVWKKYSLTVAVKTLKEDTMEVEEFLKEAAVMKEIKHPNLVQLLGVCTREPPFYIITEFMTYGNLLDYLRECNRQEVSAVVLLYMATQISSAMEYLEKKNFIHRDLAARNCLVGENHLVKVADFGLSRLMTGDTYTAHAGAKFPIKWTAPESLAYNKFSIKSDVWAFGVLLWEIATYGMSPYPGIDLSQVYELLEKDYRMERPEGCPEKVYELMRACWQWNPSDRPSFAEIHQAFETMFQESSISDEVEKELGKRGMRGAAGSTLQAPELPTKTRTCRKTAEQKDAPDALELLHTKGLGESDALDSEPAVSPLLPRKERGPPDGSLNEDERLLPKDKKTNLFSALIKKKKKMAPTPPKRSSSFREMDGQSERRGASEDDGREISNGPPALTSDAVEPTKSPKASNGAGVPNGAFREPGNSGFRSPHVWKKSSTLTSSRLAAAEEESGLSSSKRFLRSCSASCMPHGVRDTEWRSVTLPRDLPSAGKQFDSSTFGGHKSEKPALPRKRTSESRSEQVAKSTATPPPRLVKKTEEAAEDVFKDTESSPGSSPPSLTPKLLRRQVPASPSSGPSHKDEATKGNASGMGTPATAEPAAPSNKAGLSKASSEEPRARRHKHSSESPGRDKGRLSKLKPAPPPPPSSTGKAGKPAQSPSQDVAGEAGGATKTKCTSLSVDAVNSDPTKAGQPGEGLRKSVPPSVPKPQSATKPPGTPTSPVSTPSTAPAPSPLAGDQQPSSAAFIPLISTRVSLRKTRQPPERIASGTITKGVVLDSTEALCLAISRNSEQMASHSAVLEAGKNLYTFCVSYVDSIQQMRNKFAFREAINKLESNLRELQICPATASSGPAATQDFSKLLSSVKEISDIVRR

## c-Abl tyrosine kinase (from UniProt E9PT20 1-1143) (enzyme)
[1]
  binding: no binding (condition: neurons without BDNF stimulation)
[2]
  binding: binds
